Results published in PubChem BioAssay AID504375 (National Center for Advancing Translational Sciences (NCATS), 2011).
Hit rate of the full screen: of about 1,600 compounds, about 25 (2%) were called active. Not shown: some 7% with an inconclusive outcome. Calls come from the whole dose curve; as a rule, active = well fitted inhibition curve with a large enough effect; inconclusive = small, poorly fitted or top-dose-only effect, or effect the other way; inactive = no such curve, though single readings can be large or run the other way. The list shows a part of the results.

Sequences of proteins named here, by UniProt entry; tags and fusion partners are left off.
UniProt Q01196, whole entry, looked up: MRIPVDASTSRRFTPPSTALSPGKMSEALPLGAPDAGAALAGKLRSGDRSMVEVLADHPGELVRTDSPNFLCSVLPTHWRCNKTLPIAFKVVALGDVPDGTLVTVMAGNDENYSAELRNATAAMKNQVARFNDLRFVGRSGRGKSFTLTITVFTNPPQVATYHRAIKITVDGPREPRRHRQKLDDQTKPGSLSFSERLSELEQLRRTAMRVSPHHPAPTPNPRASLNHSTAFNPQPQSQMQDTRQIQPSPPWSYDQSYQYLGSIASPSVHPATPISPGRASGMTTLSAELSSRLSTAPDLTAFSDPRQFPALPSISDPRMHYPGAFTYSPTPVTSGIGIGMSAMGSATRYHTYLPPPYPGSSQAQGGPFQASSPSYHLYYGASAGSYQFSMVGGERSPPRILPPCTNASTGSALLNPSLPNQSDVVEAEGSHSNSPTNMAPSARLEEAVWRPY
UniProt Q13951, whole entry, looked up: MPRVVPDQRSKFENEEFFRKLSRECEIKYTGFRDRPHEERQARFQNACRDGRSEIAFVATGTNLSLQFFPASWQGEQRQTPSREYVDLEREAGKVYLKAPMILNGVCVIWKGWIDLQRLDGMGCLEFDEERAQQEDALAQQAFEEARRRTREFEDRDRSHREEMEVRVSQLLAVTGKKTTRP

The compounds below were run against Runt-related transcription factor 1 (Homo sapiens) + Core-binding factor subunit beta (Homo sapiens) (UniProt Q01196+Q13951) (assay: qHTS Assay for Compounds Blocking the Interaction Between CBF-beta and RUNX1 for the Treatment of Acute Myeloid Leukemia: Hit Validation with Orthogonal Assay). Details: CBFbeta-RUNX1 binding orthogonal assay, biochemical; series mostly up to 41 µM; activity change, negative = inhibition: at the top concentration.
Description: NIH Chemical Genomics Center [NCGC]
NIH Molecular Libraries Probe Production centers Network [MLPCN]
Assay Submitter (PI): Paul Liu
Core Binding Factor (CBF) abnormalities are associated with 20-25% of all acute myeloid leukemias (AML), of which 5-10% are further sub classified as acute myelomonocytic leukemia with eosinophilia, also known as M4Eo in the FAB classification scheme. This subtype of leukemia is usually associated with chromosome 16 inversion (p13:q22). Chromosome 16 inversion results in formation of the fusion oncogene CBFB-MYH11, which encodes the fusion protein CBF-beta-SMMHC.
It has been hypothesized that the interference of CBF-beta and RUNX1 binding could have therapeutic implications for patients with CBF mediated leukemias. We developed a CBF-beta and RUNX1 binding assay in AlphaScreenTM format and optimized it for high throughput screening to search for inhibitors. The goal of this project is to screen MLPCN's compound collection (MLSMR) for identifying the inhibitors of the interaction between CBF-beta and RUNX1 proteins as research probes. If these probes work well in the animal models, the ultimate goal of this project is to development a new drug treatment for this disease.
This assay can not be used to assess how apparent inhibitors interfere with protein binding, and whether inhibitors specifically bind to either protein. Disruption of this protein-protein interaction, through any mechanism, is the intended target activity.
The present data set was run to confirm the activity of hits from the primary screen using an orthogonal assay technology for measuring protein-protein interaction disruption.
A TR-FRET (time resolved fluorescence resonance energy transfer) assay was performed using the same assay buffer, protein concentrations and incubation times as described previously in the AlphaScreen assay, except that terbium (Tb+) labeled anti-his-antibody and XL665 linked streptavidin were used to capture the binding signal. The Tb+ labeled anti-his-antibody captures His(6)-CBF and XL665 linked streptavidin binds to biotin-RUNX1. The binding of RUNX1 to CBFbrings Tb+ and XL665 to proximity resulting in a TR-FRET signal. Briefly, in a white 384-well plate, 10 µl/well of mixture of biotin-RUNX1 and His(6)-CBFwere incubated with 10 µl/well buffer (positive control) or 10 µl/well compounds (negative control) for 20 min followed by an addition of 10 µl/well of Tb+ labeled anti-his(6)-antibody and XL665 linked streptavidin. After 90 min of incubation in the dark, the assay plate was measured in the Envision plate reader using TR-FRET detection mode. For the 1536-well plate format, 3 µl/well mixture of biotin-RUNX1 and His(6)-CBF (30 nM per protein) was incubated with 23 nl/well compound (dissolved in 100% DMSO) or the equivalent DMSO concentration (positive control) for 30 min followed by the addition of 1 µl/well of 0.44 ng Tb+ labeled anti-his(6)-antibody and 5 nM streptavodin-XL665. After 90 min of incubation, the assay plate was measured in the Envision plate reader.
The TR-FRET assay for detecting interaction between HIV-I Tat and […] was similarly performed with the recombinant full-length HIV-I Tat CLADE B and HIV-I Tat Biotin conjugated proteins supplied by Diatheva (Fano, Italy). Briefly, the His-CBF and Biotin-RUNX1 complex at a working concentration of 83.3 nM per protein were pre-incubated in assay buffer for 10 minutes on ice. Then HIV-I Tat or unlabeled CBF were added to reach final concentrations (Supplementary Figure 4b) and incubated for 5 minutes. Finally anti-His antibody and streptavidin-XL665 at a final concentration of 2.2 ng and 5 nM, respectively, were added to the plate, which was incubated for 1 hr prior to reading on the PerkinElmer Envision plate reader.
Keywords: MLSMR, MLPCN, NIH Roadmap, qHTS, NCGC, Core binding factor, CBF, CBF-beta, Acute myeloid leukemia
% is set by controls: 0 for no effect and ±100 for the full control effect; potency is the fitted concentration of half-maximal effect.

SMILES	activity change, negative = inhibition	Potency
COCc1cc(=O)n2[nH]c(-c3ccco3)cc2n1	inactive: 4.87%	
CC(C)COC(=O)NC1c2ccccc2Oc2ccccc21	inactive: 6.52%	
CC(C)(C)c1csc(Sc2ccc([N+](=O)[O-])cn2)n1	inactive: 42.4%	
Cn1c(NC(=O)c2ccc(F)cc2)c(-c2cccs2)c(=O)c2ccccc21	inactive: 7.39%	
O=C(Cc1n[nH]c(=O)c2ccccc12)OCc1c(Cl)cccc1Cl	inactive: 12.9%	
COc1ccc(-c2nnsc2N2C(=O)c3ccccc3C2=O)cc1	inactive: 14.2%	
O=C(CN1CCN(S(=O)(=O)c2ccc(Cl)s2)CC1)N1CCOCC1	inactive: 10.6%	
CC(=O)/C=C(\C)N=Nc1c(O)[nH]c2ccccc12	inactive: 21.1%	
O=C1c2ccccc2C(=O)N1/N=C/c1ccc(O)c(O)c1O		active: 2.82 µM
CC(C)N(Cc1ccccc1)C(=O)c1ccc2nsnc2c1	inactive: 18%	
COc1ccc(C(=O)NC(=S)NNC(=O)c2c(-c3ccccc3)noc2C)cc1OC	inactive: 1.53%	
CCOC(=O)CSc1nnc(Cn2nnc3ccccc32)n1-c1ccc(F)cc1	inactive: -7.13%	
Cc1nc(-c2ccc3c(c2)CCC(=O)N3)cs1	inactive: 11.6%	
O=C(N/N=C/C1=Cc2ccccc2OC1)c1ccncc1	inactive: 29.3%	
COc1cc(OC)c(OC)cc1/C=N/NC(=O)CCc1c(C)n[nH]c1C	inactive: 18.8%	
CC(C)(C)Sc1ccc([N+](=O)[O-])cc1C(=O)Nc1ccncc1	inactive: 29.8%	
O=C(Oc1c(-c2ccccc2)c(=O)n2c3c(cccc13)CC2)c1ccc(F)cc1	inactive: 6.68%	
COc1cccc(NC(=O)C(=O)NCCc2ccc(F)cc2)c1	inactive: 1.5%	
Nc1ncnc2c1ncn2C1OC(CO)C(O)C1N (stereo unspecified)	inactive: -6.45%	
Cc1ccc(C(=O)COc2cc(C)nc3nncn23)cc1	inactive: -2.28%	
Cc1ccnn1CC(=O)N/N=C/c1cn[nH]c1-c1ccc(F)cc1	inactive: 2.29%	
O=C(NNC(=O)C(Cl)Cl)c1cnn(-c2ccccc2)c1C(F)(F)F	inactive: 1.06%	
COc1cccc(Nc2ncc(C#N)c(N)n2)c1	inactive: 10%	
Clc1c(Cl)c(Cl)c2n[nH]nc2c1Cl	inactive: 4.26%	
COc1ccccc1C1CCN(C(=O)c2cccs2)CC1	inactive: 1.7%	
Cc1nn(-c2ccccc2)nc1-c1nnc(-c2ccc(C(F)(F)F)cc2)o1	inactive: -5.37%	

SMILES	activity change, negative = inhibition	Potency
CCN(CC)C(=N)/C(C#N)=N/Nc1ccc(C)cc1	inactive: 38.4%	
CCCc1c(NC(=O)Nc2ccc(F)cc2)cnn1-c1ccccc1	inactive: -5.71%	
CC(=O)Nc1ccc(S(=O)(=O)Nc2ccc(C(=O)NCC(=O)O)cc2)cc1	inactive: 14.8%	
Cc1cc(NC(=O)c2c(-c3c(F)cccc3Cl)noc2C)no1	inactive: -9.43%	
COc1cc(NC(N)=S)c(OC)cc1Cl	inactive: 0.171%	
CCOc1ccc(N=C/C=C/c2ccccc2)c(O)c1	inactive: 15.7%	
CNC(=O)COC(=O)c1ccc(Cl)c(S(N)(=O)=O)c1	inactive: -2.83%	
CCOc1ccc(/C=C2\CCc3ccccc3C2=O)cc1	inactive: 8.98%	
COc1ccccc1N1C(=O)[C@@H]2[C@H](C1=O)[C@H](C(=O)c1ccc(OC(C)=O)cc1)N1N=CC=C[C@@H]21	inactive: 21.1%	
CCC1(CC)Nc2ccccc2C(=O)N1c1ccc(OC)cc1	inactive: -1.48%	
O=C(Nc1ccc(C(F)(F)F)cn1)Nc1cccs1	inactive: 13.6%	
Clc1ccc(CSc2nncn2-c2ccc3c(c2)OCCO3)cc1	inactive: 0.758%	
COc1ccccc1C1CCN(C(=O)c2ccco2)CC1	inactive: 13.8%	
CCCSc1sc(C(=O)OC)c(-c2cccs2)c1C#N	inactive: 22.2%	
c1ccc(-c2nnc(-c3ccccn3)nc2NC2CCCCC2)cc1	inactive: -3.48% [at 82.4 µM]	
COc1ccc(OS(=O)(=O)c2c(C)noc2C)cc1	inactive: 14.1%	
CC(C)(C)c1ccc(NC(=O)c2ccsc2)cc1	inactive: 12.4%	
NS(=O)(=O)c1ccc(N/N=C/c2ccc(C(=O)O)cc2)c([N+](=O)[O-])c1	inactive: 94.8%	
COC(=O)c1ccc(C(=O)NN)cc1	inactive: 6.01%	
Cn1c(=O)c2c(nc(N3CCOCC3)n2C/C=C/c2ccccc2)n(C)c1=O	inactive: -3.46%	
CCOC(=O)CC(=O)CSc1nc(CC)c(C)cc1C#N	inactive: 22.5%	
O=C(Nc1ccc(Cl)cc1)N1CCCC(Cn2cccc2)C1 (stereo unspecified)	inactive: -9.6%	
COc1cc(NC(=S)NCCO)c(OC)cc1Cl	inactive: -0.0734%	
CC[C@H](C)[C@H](NC(=O)c1ccccc1)C(=O)Nc1ccc(S(=O)(=O)Nc2cc(C)nc(C)n2)cc1	inactive: -7.81%	
Cc1ccc(/C(O)=C/C(=O)C(=O)NC23CC4CC(CC(C4)C2)C3)cc1	inactive: -1.96%	
CCCCCCCc1c(O)nc(SCC(=O)O)[nH]c1=O	inactive: 7%	

SMILES	activity change, negative = inhibition	Potency
CCCC1=NN(C(=O)Cc2ccc(OC)c(OC)c2)C(O)(C(F)(F)F)C1 (stereo unspecified)	inactive: 0.648%	
COC(=O)Cc1cccc2c(=O)c3ccccc3oc12	inactive: 8.11%	
Clc1ccc(Nc2cc(-c3ccccc3)nc3ncnn23)cc1	inactive: -2.73%	
COC(=O)[C@H](CCSC)NC(=O)Nc1cc(OC)cc(OC)c1	inactive: -10.5%	
COCc1cc(=O)[nH]c2c1c(-c1ccccc1)nn2C	inactive: -2.96%	
Cc1ccc(S(=O)(=O)NNC(=O)c2cnn(-c3ccc(Cl)cc3)c2C(F)(F)F)cc1	inactive: 7.1%	
O=P(O)(O)c1cc(-c2ccccc2)oc1-c1ccccc1	inactive: 5.32%	
S=C(Nc1ccccc1)N1CCCN1c1ccccc1	inactive: 3.85%	
COC(=O)c1c(NS(=O)(=O)c2ccccc2)csc1C	inactive: 0.55%	
CCOc1ccc(-c2noc(-c3cccnc3)n2)cc1OCC	inactive: 2.13%	
Clc1ccc(/C=C/c2nc(Cl)c(-c3ccc(Cl)cc3)c(Cl)n2)cc1	inactive: 4.77%	
CCc1nc2ccccc2nc1N1CCN(S(=O)(=O)c2ccc(Cl)cc2)CC1	inactive: 0.844%	
CC1CN(S(=O)(=O)c2cccc(C(F)(F)F)c2)CC(C)O1 (stereo unspecified)	inactive: -18.1%	
Cc1onc(-c2c(F)cccc2Cl)c1C(=O)Nc1ccccc1N1CCOCC1	inactive: -8.27%	
NC(=O)CNC(=O)c1cccc(Cl)c1	inactive: -0.196%	
CCOC(=O)C1CCCN(C(=O)Nc2c(-c3ccccc3)noc2C)C1 (stereo unspecified)	inactive: 10.8%	
CCOC(=O)/C=C(\C)Sc1cc(O)c2ccccc2c1O	inactive: 66.2%	
CCCCOC(=O)CCc1c(C)n[nH]c1C	inactive: -0.0856%	
O=C(COc1ccc(Cl)cc1)N(Cc1ccco1)C1CCS(=O)(=O)C1 (stereo unspecified)	inactive: -7.45%	
O=C(O)CC(CCc1ccccc1)OC1OC(CO)C(O)C(O)C1O (stereo unspecified)	inactive: -29.1%	
Cc1ccn(C)c(=N)c1	inactive: -5.75%	
CCOC(=O)N1CCc2c(sc(N)c2C#N)C1	inactive: 8.69%	
OCCNc1nc2ccccc2nc1NCCO	inactive: 0.991%	
CCn1nc(NC(=O)Cc2ccc(OC)cc2)c2cc3cc(C)ccc3nc21	inactive: 21%	

Gathered by group: the compounds so far containing a CF3 group (six)
SMILES	activity change, negative = inhibition	Potency
O=C(NNC(=O)C(Cl)Cl)c1cnn(-c2ccccc2)c1C(F)(F)F	inactive: 1.06%	
Cc1nn(-c2ccccc2)nc1-c1nnc(-c2ccc(C(F)(F)F)cc2)o1	inactive: -5.37%	
O=C(Nc1ccc(C(F)(F)F)cn1)Nc1cccs1	inactive: 13.6%	
CCCC1=NN(C(=O)Cc2ccc(OC)c(OC)c2)C(O)(C(F)(F)F)C1 (stereo unspecified)	inactive: 0.648%	
Cc1ccc(S(=O)(=O)NNC(=O)c2cnn(-c3ccc(Cl)cc3)c2C(F)(F)F)cc1	inactive: 7.1%	
CC1CN(S(=O)(=O)c2cccc(C(F)(F)F)c2)CC(C)O1 (stereo unspecified)	inactive: -18.1%	
